Here are results for one substance from US5498601A (Nippon Steel Corporation, priority 1992, dated 1996).

A short description of this data set: general procedure: Fmoc solid-phase peptide synthesis; p-Alkoxybenzyl alcohol type resin; Diisopropylcarbodiimide/HOBT. The conditions noted are these: whole synthesis, scale 0.25 mmol, acetate.

No end group written: not given here.

In turn, PSRGDW-OH gave an isolated mass of 40 mg.
